Laboratory results taken from patent US5830667A, “Human P450 IID6 cytochrome-derived peptide fragments, anti-peptide fragment antibodies, applications thereof in the diagnosis of autoimmune hepatitis” (Institut National de la Sante et de la Recherche …, priority 1991, dated 1998).
Not every detail of the peptide structures is certain; ends, links or a residue may be inferred. Some compounds share one wording; it may come from a single statement. Ends that are not written are not given here. Peptide text beside a SMILES is read from it.

These compounds were tested on anti-LKM autoantibodies (assay: Peptide fragments used as diagnostic reagents for autoimmune hepatitis).
Assay type: binding, human
For `C[C@@H](O)[C@H](N)C(=O)N[C@@H](Cc1c[nH]c2ccccc12)C(=O)N[C@@H](CC(=O)O)C(=O)O` [Peptide of formula IV, Thr-Trp-Asp] (H-Thr-Trp-Asp-OH), the “positive response in patients suffering from autoimmune hepatitis” value (shortened to “positive response in patients suffering”) was “positive response in all patients”.
In the case of “LLTEHRMTWDPAQPPRDL [Peptide of formula II, Leu-Leu-Thr-Glu-His-Arg-Met-Thr-Trp-Asp-Pro-Ala-Gln-Pro-Pro-Arg-Asp-Leu]”, the “positive response in patients suffering” value is reported as “positive response in all patients”.
In the case of “GMTHMTSRDIGVQGFRI [Peptide of formula IX, Gly-Met-Thr-His-Met-Thr-Ser-Arg-Asp-Ile-Gly-Val-Gln-Gly-Phe-Arg-Ile]”, the “positive response in patients suffering” value is reported as “positive response in most patients”.
For “EHRMTWDPAQPPR [Peptide of formula III, Glu-His-Arg-Met-Thr-Trp-Asp-Pro-Ala-Gln-Pro-Pro-Arg]”, the “positive response in patients suffering” value was “positive response in all patients”.
